{
  "sequences": {"note": "Sequences of proteins named here, by UniProt entry; tags and fusion partners are left off.", "UniProt Q0JBA9, entry or part of it": "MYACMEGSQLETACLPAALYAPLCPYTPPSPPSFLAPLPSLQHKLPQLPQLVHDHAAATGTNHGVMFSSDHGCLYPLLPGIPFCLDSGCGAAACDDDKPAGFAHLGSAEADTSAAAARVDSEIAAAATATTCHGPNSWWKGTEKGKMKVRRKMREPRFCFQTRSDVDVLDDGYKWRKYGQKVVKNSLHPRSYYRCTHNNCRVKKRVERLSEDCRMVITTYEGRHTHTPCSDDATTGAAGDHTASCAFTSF"},
  "source": "paper PMC7819943",
  "about": "“Rice protein-binding microarrays: a tool to detect cis-acting elements near promoter regions in rice”",
  "note": "Some of the results follow.",
  "data": [
    {"biological_target": "OsWRKY34 (Oryza sativa, UniProt Q0JBA9 1-250)", "assay": "protein-binding microarray (RPBM); PBS, 2% BSA, 51.3 ng/ul salmon testes DNA, 50 uM zinc acetate, 200 nM TF, 25 C, 1 h; high values mean tight binding", "settings": "protein: recombinant; tags: N-terminal polyhistidine and DsRed monomer fusion (pET32a); label: CyDye5-dUTP incorporated in the synthesized complementary strand; 3' TTTTT single-stranded linker to array surface; dsDNA, one strand shown", "procedure,_shortened": "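Binding signal here means per-feature fluorescence intensity in arbitrary units. The values were read on an Axon 4000B scanner after a custom Agilent array, double-stranded by primer extension with Cy5-dUTP, was incubated with 200 nM protein at 25 °C for 1 h in PBS with 2% BSA, salmon testes DNA and 50 µM zinc acetate, then washed. The proteins were transcription factors with an N-terminal polyhistidine tag and DsRed, expressed in E. coli BL21-CodonPlus and purified on Ni–NTA.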", "values": [
      {"sequence": "CCCCGACACGTTTTCAAGTTAAAGTGCGCATCCTGACCCACGGAGTCACCTAGTGCAG", "binding signal": "9180 fluorescence intensity (a.u.)"},
      {"sequence": "GACCTCCTGTTTTCGTGCCAGTTTGAGTCCTAATCAAGCGCGGAGTCACCTAGTGCAG", "binding signal": "9380 fluorescence intensity (a.u.)"},
      {"sequence": "ACAGGTTCATTCATTCTCCAAAGTCCAGCGTTCATCAATGCGGAGTCACCTAGTGCAG", "binding signal": "8200 fluorescence intensity (a.u.)"},
      {"sequence": "CAGATTTTACTTTGGTTCTGTTAGCACGTTTTTCAAATAACGGAGTCACCTAGTGCAG", "binding signal": "8450 fluorescence intensity (a.u.)"},
      {"sequence": "CTCATCGTCCTCCACGTGTCCACCCATACACGTGTCGCCACGGAGTCACCTAGTGCAG", "binding signal": "9000 fluorescence intensity (a.u.)"},
      {"sequence": "CTTTTTATTTGCAAATATGCCGTTCACATGTTCTCTGCTTCGGAGTCACCTAGTGCAG", "binding signal": "9420 fluorescence intensity (a.u.)"},
      {"sequence": "TTATTGCTGTCTTTTGTATTCTCAGCTTTTCAAAATCAGCCGGAGTCACCTAGTGCAG", "binding signal": "9790 fluorescence intensity (a.u.)"},
      {"sequence": "TAGCTAGTGGTCGGTAGCAAGAGGTGGGGTGGCTTAGTGACGGAGTCACCTAGTGCAG", "binding signal": "13700 fluorescence intensity (a.u.)"},
      {"sequence": "AAATATATCTTTCCATTTTTCAAAAGTTTTGATCTTCCTACGGAGTCACCTAGTGCAG", "binding signal": "8480 fluorescence intensity (a.u.)"},
      {"sequence": "CTCTCACCCTTCTCTCCTCCACCTTTCCCCAACACGTACCCGGAGTCACCTAGTGCAG", "binding signal": "9060 fluorescence intensity (a.u.)"},
      {"sequence": "ACACTACTTTATGAATGTCTGCACCGATATGTGCCACTTTCGGAGTCACCTAGTGCAG", "binding signal": "9530 fluorescence intensity (a.u.)"},
      {"sequence": "ACCCTCCGTTTCTAAATATTTAACACCGTTGACTTTTTAGCGGAGTCACCTAGTGCAG", "binding signal": "23700 fluorescence intensity (a.u.)"},
      {"sequence": "CATACATAAACTTTCAACTTTTCCGTCACATCGCTCCAATCGGAGTCACCTAGTGCAG", "binding signal": "8140 fluorescence intensity (a.u.)"},
      {"sequence": "TTTCGTATTTGTTACCAGTTTTCGATTTGTACCGACATGTCGGAGTCACCTAGTGCAG", "binding signal": "9820 fluorescence intensity (a.u.)"},
      {"sequence": "CCTCTCTATCTCTCTCTCGTCGTCTACCTCTCATCTCCTTCGGAGTCACCTAGTGCAG", "binding signal": "14100 fluorescence intensity (a.u.)"},
      {"sequence": "CTTTGCTTGCACTTGGACGAGTACAAGTATTTGGATCCTTCGGAGTCACCTAGTGCAG", "binding signal": "8240 fluorescence intensity (a.u.)"},
      {"sequence": "CATACTTATTTCTTCTGAGTTTTGAGTTTTGACTGACAAGCGGAGTCACCTAGTGCAG", "binding signal": "8940 fluorescence intensity (a.u.)"},
      {"sequence": "ATCACCTTCACGTTCCGAGATGTGGCACGAATCCCGAGGACGGAGTCACCTAGTGCAG", "binding signal": "8070 fluorescence intensity (a.u.)"},
      {"sequence": "CTGTACTTGCTCTTAGGTTGGCGTTTTGCTTTAAGATTGTCGGAGTCACCTAGTGCAG", "binding signal": "8520 fluorescence intensity (a.u.)"},
      {"sequence": "CATAATTCTTGACGTCCTTACCAATAACACAGGGCATCATCGGAGTCACCTAGTGCAG", "binding signal": "8460 fluorescence intensity (a.u.)"},
      {"sequence": "AGTCTGGCTTGCACATCTGCTGTTTACAACACATCAAATTCGGAGTCACCTAGTGCAG", "binding signal": "9810 fluorescence intensity (a.u.)"},
      {"sequence": "ACTTCTTCTTTTTTTCATATATGCCATGTGTATGACATGTCGGAGTCACCTAGTGCAG", "binding signal": "9760 fluorescence intensity (a.u.)"},
      {"sequence": "CGCGTTGGAATTCAGCTGTTAACTTCTTTGTACCTACAAGCGGAGTCACCTAGTGCAG", "binding signal": "10100 fluorescence intensity (a.u.)"},
      {"sequence": "CTGGCGTCGCTGTTTCTGGGGATTTGTTGGGAGTGTAGCACGGAGTCACCTAGTGCAG", "binding signal": "9400 fluorescence intensity (a.u.)"},
      {"sequence": "GGAGGGTTAGGGTTAGGATTCAGAGACTACTGTACTTATTCGGAGTCACCTAGTGCAG", "binding signal": "10900 fluorescence intensity (a.u.)"},
      {"sequence": "TCTCCTCTCCTACCCTTCTTCTTCTTCCACTTGAAGCTTTCGGAGTCACCTAGTGCAG", "binding signal": "10600 fluorescence intensity (a.u.)"},
      {"sequence": "CCGCTGTCATCTCCTTTACTGATAACCATTTACTCATCCACGGAGTCACCTAGTGCAG", "binding signal": "10300 fluorescence intensity (a.u.)"},
      {"sequence": "TACTTTTTTTAATTACACACAGACACAGACGCGCACATACCGGAGTCACCTAGTGCAG", "binding signal": "8300 fluorescence intensity (a.u.)"},
      {"sequence": "ATTTCCCCTTTCGTTATCTTGGCCCAAACGTGTGGTTTCCCGGAGTCACCTAGTGCAG", "binding signal": "10600 fluorescence intensity (a.u.)"},
      {"sequence": "AGCTCTCTCTCTCCTCCCGGTTCACGACCTTCCATCCGCCCGGAGTCACCTAGTGCAG", "binding signal": "8120 fluorescence intensity (a.u.)"},
      {"sequence": "GGGAGGGTTTTTTTTTTCTTTTTGGTGTTGTTTTTGGATGCGGAGTCACCTAGTGCAG", "binding signal": "13000 fluorescence intensity (a.u.)"},
      {"sequence": "GGGAGTGGCGGGTTCAAGCTCGAGCTGTGGTGCCTACCGTCGGAGTCACCTAGTGCAG", "binding signal": "9680 fluorescence intensity (a.u.)"},
      {"sequence": "TTGTTCTTTTACATGGCTACACAGATCACATACATTAAAACGGAGTCACCTAGTGCAG", "binding signal": "8200 fluorescence intensity (a.u.)"},
      {"sequence": "ATTTGACCGGCATTGTATTGTTCGTCGTCGAGGAGGAGGGCGGAGTCACCTAGTGCAG", "binding signal": "8280 fluorescence intensity (a.u.)"},
      {"sequence": "GTTTGTCCTGTATGTATTGCGATGAGTTCTTGAAAATCCTCGGAGTCACCTAGTGCAG", "binding signal": "13200 fluorescence intensity (a.u.)"},
      {"sequence": "CTCCCATGCATGCAACCCTAGCTACACATTCCAAATAACTCGGAGTCACCTAGTGCAG", "binding signal": "9170 fluorescence intensity (a.u.)"},
      {"sequence": "GTCAGAAACATGTTTTTCTCGTATTTATCTTCTTTTTTTTCGGAGTCACCTAGTGCAG", "binding signal": "10900 fluorescence intensity (a.u.)"},
      {"sequence": "GGAGGTCTAAGATTTTCTGGTATTTCGGTTTAGTGCGGATCGGAGTCACCTAGTGCAG", "binding signal": "9650 fluorescence intensity (a.u.)"},
      {"sequence": "TTCGCGGAGACTTATCGTCTCTCTTCCATTCTGCTTGAACCGGAGTCACCTAGTGCAG", "binding signal": "8500 fluorescence intensity (a.u.)"},
      {"sequence": "CTGTTAGTATGCCTGGTCTCCTCTACTGATGCTTGAATGCCGGAGTCACCTAGTGCAG", "binding signal": "9850 fluorescence intensity (a.u.)"},
      {"sequence": "TTGTTTCGTCCTCACTCATCGCCGCTCCGCCATTGCCCAGCGGAGTCACCTAGTGCAG", "binding signal": "11600 fluorescence intensity (a.u.)"},
      {"sequence": "GCCGTCCTCGCCGCCGCCTCCGGCCCCGTCCTCGCCACTGCGGAGTCACCTAGTGCAG", "binding signal": "8770 fluorescence intensity (a.u.)"},
      {"sequence": "GCAATCACCATTTTGTAAACAAATCATGCATCCTGCCGGTCGGAGTCACCTAGTGCAG", "binding signal": "9870 fluorescence intensity (a.u.)"},
      {"sequence": "GCTATCGCCGGTTTCGTCATCAATAATCTTCTCTGCCTCTCGGAGTCACCTAGTGCAG", "binding signal": "8820 fluorescence intensity (a.u.)"},
      {"sequence": "TCTCTCCGTTTCACAATATAAGTCATTTTAGTATTTCTTACGGAGTCACCTAGTGCAG", "binding signal": "10200 fluorescence intensity (a.u.)"},
      {"sequence": "AACCACTCTTCTCCTGACACCTCTCGCCGCCGCGTCTCTCCGGAGTCACCTAGTGCAG", "binding signal": "14500 fluorescence intensity (a.u.)"},
      {"sequence": "TTTTCTATCAATATCATCTTCCATAGCGTCTTCCGTCGAGCGGAGTCACCTAGTGCAG", "binding signal": "8490 fluorescence intensity (a.u.)"},
      {"sequence": "TTTTCTCCGGCCGTTCGCCTGTTTTTGTTCGTGTGATAGCCGGAGTCACCTAGTGCAG", "binding signal": "12400 fluorescence intensity (a.u.)"},
      {"sequence": "CGACACTATATTCTGCTGTTTTTTTCCTTGTTGCCCGCATCGGAGTCACCTAGTGCAG", "binding signal": "8100 fluorescence intensity (a.u.)"},
      {"sequence": "GGGTTTCAATCATACAAATTTTTTATGAGGTCTTTTAAAACGGAGTCACCTAGTGCAG", "binding signal": "8120 fluorescence intensity (a.u.)"},
      {"sequence": "TCTTTCGTTTTTGGTACGCACGCTTTTCAAATTATTCAATCGGAGTCACCTAGTGCAG", "binding signal": "8770 fluorescence intensity (a.u.)"},
      {"sequence": "CCATATTTTAATGTATGACGCCATTGACTTTTTGTCCAACCGGAGTCACCTAGTGCAG", "binding signal": "14500 fluorescence intensity (a.u.)"},
      {"sequence": "CATTTTGCAAGAGAGCTTCACCCAGCTCCGCTTCCATTTTCGGAGTCACCTAGTGCAG", "binding signal": "10600 fluorescence intensity (a.u.)"},
      {"sequence": "ACCAATTGGTTTCACTCATCATTCATTCTTTCATTCCTCACGGAGTCACCTAGTGCAG", "binding signal": "8980 fluorescence intensity (a.u.)"}
    ]}
  ]
}
